PubChem BioAssay AID1508597, Cure First – 2020
This is an unselected part of about 2,100 reagents. 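Calls flag viability under 80% in either arm, not effects specific to rucaparib; the reference for percent is not stated.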 A reagent listed more than once was tested more than once; the source does not tell the runs apart. Not stated in the record: the 100% reference.

- Purpose: 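Knock-downs altering ovarian cancer cell survival with or without PARP inhibitor rucaparib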 (primary screen)
- Cell system: human ovarian carcinoma lines grown from tumours: OCI-P5x (papillary serous) and OCI-C5x (clear cell)
- Reagent: siRNA pool against human genes, 1.25 pmol siRNA per well
- Timing: 72 h or 96 h, depending on the cell culture
- Treatment: rucaparib 20 µM (about IC30) or vehicle, present until read-out
- Read-out: 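Luminescent ATP-based viability assay read 72 or 96 h after transfection, depending on culture, given as normalised percent viability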
- Reading the numbers: viability, normalised: higher = more viable cells remaining
- Call rule: 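Active when normalised viability falls below 80 percent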
- Meaning of the calls: active = viability under 80%; inactive = viability 80% or more

gene symbol	rucaparib or vehicle	cell line	technical replicate	viability, normalised (%)	outcome
TRRAP (transformation/transcription domain associated protein)	Rucaparib	OCI-C5x (clear cell)	1	39.7	active
TRRAP (transformation/transcription domain associated protein)	Rucaparib	OCI-C5x (clear cell)	1	49	active
TRRAP (transformation/transcription domain associated protein)	Rucaparib	OCI-C5x (clear cell)	1	52.3	active
TRRAP (transformation/transcription domain associated protein)	Rucaparib	OCI-C5x (clear cell)	2	77.4	active
TRRAP (transformation/transcription domain associated protein)	Rucaparib	OCI-C5x (clear cell)	2	39.6	active
TRRAP (transformation/transcription domain associated protein)	Rucaparib	OCI-C5x (clear cell)	2	31.2	active
TRRAP (transformation/transcription domain associated protein)	Rucaparib	OCI-C5x (clear cell)	3	49.1	active
TRRAP (transformation/transcription domain associated protein)	Rucaparib	OCI-C5x (clear cell)	3	26.4	active
TRRAP (transformation/transcription domain associated protein)	Rucaparib	OCI-C5x (clear cell)	3	66.3	active
TRRAP (transformation/transcription domain associated protein)	Rucaparib	OCI-P5x (serous)	1	71.7	active
TRRAP (transformation/transcription domain associated protein)	Rucaparib	OCI-P5x (serous)	1	56.5	active
TRRAP (transformation/transcription domain associated protein)	Rucaparib	OCI-P5x (serous)	1	54.2	active
TRRAP (transformation/transcription domain associated protein)	Rucaparib	OCI-P5x (serous)	2	46.5	active
TRRAP (transformation/transcription domain associated protein)	Rucaparib	OCI-P5x (serous)	2	77.3	active
TRRAP (transformation/transcription domain associated protein)	Rucaparib	OCI-P5x (serous)	2	62.6	active
TRRAP (transformation/transcription domain associated protein)	Rucaparib	OCI-P5x (serous)	3	67.2	active
TRRAP (transformation/transcription domain associated protein)	Rucaparib	OCI-P5x (serous)	3	72.6	active
TRRAP (transformation/transcription domain associated protein)	Rucaparib	OCI-P5x (serous)	3	39.7	active
TRRAP (transformation/transcription domain associated protein)	Vehicle	OCI-C5x (clear cell)	1	22.5	active
TRRAP (transformation/transcription domain associated protein)	Vehicle	OCI-C5x (clear cell)	1	75.7	active
TRRAP (transformation/transcription domain associated protein)	Vehicle	OCI-C5x (clear cell)	1	55	active
TRRAP (transformation/transcription domain associated protein)	Vehicle	OCI-C5x (clear cell)	2	30.3	active
TRRAP (transformation/transcription domain associated protein)	Vehicle	OCI-C5x (clear cell)	2	55.6	active
TRRAP (transformation/transcription domain associated protein)	Vehicle	OCI-C5x (clear cell)	2	51.5	active
TRRAP (transformation/transcription domain associated protein)	Vehicle	OCI-C5x (clear cell)	3	41.3	active
TRRAP (transformation/transcription domain associated protein)	Vehicle	OCI-C5x (clear cell)	3	40.6	active
TRRAP (transformation/transcription domain associated protein)	Vehicle	OCI-C5x (clear cell)	3	68.6	active
TRRAP (transformation/transcription domain associated protein)	Vehicle	OCI-P5x (serous)	1	67.9	active
TRRAP (transformation/transcription domain associated protein)	Vehicle	OCI-P5x (serous)	1	84.6	inactive
TRRAP (transformation/transcription domain associated protein)	Vehicle	OCI-P5x (serous)	1	55.8	active
TRRAP (transformation/transcription domain associated protein)	Vehicle	OCI-P5x (serous)	2	60.9	active
TRRAP (transformation/transcription domain associated protein)	Vehicle	OCI-P5x (serous)	2	57.6	active
TRRAP (transformation/transcription domain associated protein)	Vehicle	OCI-P5x (serous)	2	82.2	inactive
TRRAP (transformation/transcription domain associated protein)	Vehicle	OCI-P5x (serous)	3	59.5	active
TRRAP (transformation/transcription domain associated protein)	Vehicle	OCI-P5x (serous)	3	84.1	inactive
TRRAP (transformation/transcription domain associated protein)	Vehicle	OCI-P5x (serous)	3	86.1	inactive
JUN (Jun proto-oncogene, AP-1 transcription factor subunit)	Rucaparib	OCI-C5x (clear cell)	1	45.9	active
JUN (Jun proto-oncogene, AP-1 transcription factor subunit)	Rucaparib	OCI-C5x (clear cell)	2	43.5	active
JUN (Jun proto-oncogene, AP-1 transcription factor subunit)	Rucaparib	OCI-C5x (clear cell)	3	42.6	active
JUN (Jun proto-oncogene, AP-1 transcription factor subunit)	Rucaparib	OCI-P5x (serous)	1	70.6	active
JUN (Jun proto-oncogene, AP-1 transcription factor subunit)	Rucaparib	OCI-P5x (serous)	2	65.2	active
JUN (Jun proto-oncogene, AP-1 transcription factor subunit)	Rucaparib	OCI-P5x (serous)	3	63	active
JUN (Jun proto-oncogene, AP-1 transcription factor subunit)	Vehicle	OCI-C5x (clear cell)	1	54.1	active
JUN (Jun proto-oncogene, AP-1 transcription factor subunit)	Vehicle	OCI-C5x (clear cell)	2	36.9	active
JUN (Jun proto-oncogene, AP-1 transcription factor subunit)	Vehicle	OCI-C5x (clear cell)	3	38.1	active
JUN (Jun proto-oncogene, AP-1 transcription factor subunit)	Vehicle	OCI-P5x (serous)	1	80.6	inactive
JUN (Jun proto-oncogene, AP-1 transcription factor subunit)	Vehicle	OCI-P5x (serous)	2	99.1	inactive
JUN (Jun proto-oncogene, AP-1 transcription factor subunit)	Vehicle	OCI-P5x (serous)	3	124	inactive
